Results from PubChem BioAssay AID1458 (National Center for Advancing Translational Sciences (NCATS), 2008).
Screen size: about 210,000 compounds; about 5,900 (2.8%) were called active. About 5% were inconclusive and are not listed. The call rests on the fitted dose curve; in most records, active means well fitted activation curve with a large enough effect; inconclusive means small, poorly fitted or top-dose-only effect; inactive means no such curve, though single readings can be large or run the other way. This is a selection; strong and weak results do not stand in their true shares. The source gives no active or inactive call for entries shown without one.

Assay: qHTS Assay for Enhancers of SMN2 Splice Variant Expression; further: nearly all actives have a fitted effect of over 55% in size; on activity change, positive = activation: % of control where 0% means no effect
Settings: HEK293 SMN2-luciferase splicing reporter, luminescence, 30-36 h; activity change, positive = activation: at 46.1 µM (top of the series) unless noted
In short: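 HEK293 cells carry an SMN2 […]–luciferase reporter in which exon 7 inclusion puts luciferase in frame. Cells were plated 10-12 h before compound addition, then incubated 30-36 h at 37C. ONE-Glo luminescence was read; sodium butyrate at 4.5 mM final served as control.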
Potency means the concentration at half of the fitted maximal effect.

SMILES | activity change, positive = activation | Potency
Cc1ccc(C)c(N2CCN(C(=O)C3CCCCN3S(=O)(=O)c3ccc(F)cc3)CC2)c1 (stereo not given) | -65% | 
CCOC(=O)c1ccc(NC(=O)Cn2nc(SC)c(S(=O)(=O)c3ccc(Cl)cc3)c2N)cc1 | inactive: -72.6% | 
O=C(C1CC(c2ccccc2O)=NO1)N1CCCCC1 (stereo not given) |  | active: 0.158 µM
CCC12CN3CC(CC)(CN(C1)C31C(=O)N(C)c3ccc(C)cc31)C2=O (stereo not given) | 34.4% | 
COc1ccc(NC(=O)CC(C(=O)O)N2CCCCC2)cc1 (stereo not given) | 17.1% | 
Cc1nc2cc(NC(=O)NCCC3=CCCCC3)ccc2o1 | -15.2% | 
CCOC(=O)Nc1cc(OCC)c(NC(=O)C2CC2)cc1OCC | 30.6% | 
CCOC(=O)c1ccc(OS(=O)(=O)c2ccccc2)c(OC)c1 |  | active: 11.2 µM
COc1ccccc1N1CCN(C(=O)c2cnn3cccnc23)CC1 | 52.2% | 
CCN(Cc1ccncc1)S(=O)(=O)c1ccc(C(C)=O)cc1 | inactive: -44.7% | 
Cc1c(Br)cc(C(=O)NCCCN2CCOCC2)c(C)c1C | 42.4% | 
CC1CCN(C(=O)Cn2c(=O)n(Cc3ccc4c(c3)OCO4)c(=O)c3ccccc32)CC1 | 33.2% | 
CC1CCCC(NC(=O)CSc2nnnn2C)C1C (stereo not given) | -33.1% | 
COc1ccc2[nH]c(=O)c(CN(C)C(=O)C3CCCCC3)cc2c1 | -75.2% | 
O=C(Nc1nc(-c2cccs2)cs1)c1ccc(S(=O)(=O)N2CCCC2)cc1 | -88% | 
Cc1cc(/C=C2\SC(N)=NC2=O)c(C)n1-c1ccccc1 |  | active: 12.6 µM
Cc1cc(F)ccc1NC(=O)c1csc2c1CCC(C)C2 (stereo not given) |  | active: 6.31 µM
O=C(Nc1ccc(Cl)c([N+](=O)[O-])c1)C(NCCCO)c1ccccc1 (stereo not given) | 0.65% | 
O=C(O/N=C/c1ccc2c(c1)OCO2)c1ccccc1Cl | inactive: 2.71% | 
O=C(NCCSc1ccccc1)c1ccc(Br)cc1 |  | active: 6.31 µM
Cc1ccc(S(=O)(=O)c2cccc(S(=O)(=O)N3CCCC3)c2)cc1S(=O)(=O)N1CCCC1 | -36.9% | 
O=C(CSc1nc2ccccc2[nH]1)Nc1nc(-c2ccc(Br)cc2)cs1 | inactive: -36.4% | 

SMILES | activity change, positive = activation | Potency
Cc1cc(SCNC(=O)c2ccccc2)nc(C(C)C)n1 | 31.6% | 
CC(C)c1ccc2[nH]c(O)c(N=NC(=O)c3cccc(S(=O)(=O)N4CCCCC4)c3)c2c1 | -59.5% | 
Cc1ccccc1S(=O)(=O)Cc1ccc(C(=O)NCCN2CCCCC2C)o1 (stereo not given) | 19.4% | 
Cc1ccccc1C(=O)O/N=C(\N)c1ccncc1 | 162% | 
Cc1[nH]c(=O)[nH]c(=O)c1S(=O)(=O)N1CCC(C(=O)N2CCN(c3cccc(C(F)(F)F)c3)CC2)CC1 | -46.2% | 
C=C(CC1([C@@H](NP(=O)(c2ccccc2)c2ccccc2)[C@H]2C[C@@H]2CCCC)CC1)c1ccccc1 | -46.5% | 
Cc1onc(-c2ccccc2)c1C(=O)NCC1CCCO1 (stereo not given) | 36% | 
CCOC(=O)C1=C(CSc2nc(-c3ccncc3)ccc2C#N)OC(N)=C(C#N)C1c1ccc(OC)cc1 (stereo not given) | -71.1% | 
COc1cc(Cl)cc(/C=C/c2ccc3ccccc3n2)c1OC(C)=O |  | active: 2.51 µM
COc1ccc2nc(-c3cccc(N)c3)[nH]c2c1 | -31.8% | 
CCC(=O)Nc1cc(C(=O)OCC(=O)c2ccccc2Cl)ccc1C | 32.9% | 
CCOC(=O)c1c(C)[nH]c(=S)c(C#N)c1-c1ccc(OC)cc1 | 12.1% | 
CC(=O)NC(=O)c1ccc(-c2ccc(Cl)cc2)o1 | 51.9% | 
Cc1ccc2c3c1C1(C(=O)N3C(C)(C)CC2C)C(C#N)=C(N)Oc2cc(O)ccc21 (stereo not given) | 16.5% | 
c1ccc(-n2cnc3cc(NCc4ccccn4)ccc32)cc1 | 30.5% | 
NC(=O)c1ccc(NC(=O)COC(=O)c2c3c(nc4ccccc24)/C(=C\c2cccs2)CCC3)cc1 | inactive: -53.8% | 
O=C(N/C=C/c1ccco1)OCc1ccccc1 |  | active: 12.6 µM
O=C(CSc1nnc(-c2cccs2)n1-c1ccccc1)N1CCOCC1 | 51.5% | 
C(=N\Nc1ncnc2ccccc12)/c1ccccc1 |  | active: 15.8 µM
COc1ccc(-c2nc(-c3ccc(Br)o3)no2)cc1OC |  | active: 14.1 µM
Cc1cc(C)c2nc(N3CCCC(C(=O)NCCCN4CCOCC4)C3)sc2c1 (stereo not given) |  | active: 14.1 µM
O=S(=O)(Nc1nc2ccc(S(=O)(=O)N3CCCCC3)cc2s1)c1ccccc1 | 65.6% | 

SMILES | activity change, positive = activation | Potency
O=C(NC(=S)Nc1ccc(N2CCCCC2)cc1)c1ccco1 | 32.4% | 
COc1ccc(-c2cc(=O)c3cc(C)ccc3[nH]2)cc1 |  | active: 7.08 µM
CCOc1ccc2[nH]c(=O)c(CN(Cc3nnnn3Cc3ccco3)C3CCCCC3)cc2c1 | 49.6% | 
Cn1c(=O)c2c(nc(N3CCc4ccccc4C3)n2Cc2ccc(Br)cc2)n(C)c1=O | 33.6% | 
Cc1ccc(-c2nnc(SCC#N)n2N)cc1 | 37.7% | 
CC(C)CC(=O)/C(=C\c1ccc(Cl)cc1Cl)n1cncn1 | inactive: -111% | 
CCc1ccc(/C=C2\SC(N3CCCC3)=NC2=O)cc1 | inactive: -38.1% | 
O=C(N=Nc1c(O)[nH]c2ccccc12)c1cccc(S(=O)(=O)N2CCCCC2)c1 | 37.3% | 
CS(=O)(=O)N(Cc1ccccc1F)c1ccccc1 | 18.2% | 
COc1cc(-c2nc3c(c(C)nn3-c3ccccc3)c3cc(OC)c(OC)cc23)ccc1O | -44.9% | 
COc1ccc(NC(=O)c2ccc(COCC(F)(F)C(F)F)cc2)cc1 | -15.3% | 
CC(CN1CCNCC1)(NS(=O)(=O)c1ccccc1)c1ccccc1 (stereo not given) | 33% | 
O=C(OCc1ccccc1)N1CCOCCOCCN(C(=O)OCc2ccccc2)CCOCCOCC1 | -77.9% | 
COC(=O)c1ccc2c(c1)C(=O)/C(=C/c1ccc(C)cc1)O2 |  | active: 11.2 µM
C=CCn1c(C)cc(C(=O)CSc2nnc(-c3cccc(S(=O)(=O)N(CC)CC)c3)o2)c1C | -37.3% | 
Cc1ccc(-c2noc(CN3CCN(Cc4ccccc4)CC3)n2)cc1 | inactive: -89.9% | 
COc1ccccc1NS(=O)(=O)c1ccc(C)c(NC(=O)c2ccc(S(=O)(=O)N3CCCCCC3)cc2)c1 | -41.4% | 
Cc1ccc(NC(=O)C2CCN(C(=O)c3cnn(-c4ccccc4)c3-n3cccc3)CC2)cc1C | inactive: -46.1% | 
C=CCn1c(SCC(=O)Nc2sccc2C(N)=O)nc2sc(CC)cc2c1=O | -71.9% | 
CN(C)S(=O)(=O)c1ccc(Cl)c(C(=O)Nc2cccc([N+](=O)[O-])c2)c1 | inactive: -58.8% | 
c1ccc(-c2ccc(N3CCCC4(CCNCC4)C3)cc2)cc1 | inactive: -55.3% | 

3 entries out of the list, arranged by heavy-atom count, falling.
SMILES | activity change, positive = activation | Potency
COc1cc(-c2nc3c(c(C)nn3-c3ccccc3)c3cc(OC)c(OC)cc23)ccc1O | -44.9% | 
Cn1c(=O)c2c(nc(N3CCc4ccccc4C3)n2Cc2ccc(Br)cc2)n(C)c1=O | 33.6% | 
C=CCn1c(SCC(=O)Nc2sccc2C(N)=O)nc2sc(CC)cc2c1=O | -71.9% | 
